Results are given in words; binding and its absence hold for the method and conditions named. Binding seen in cells or lysates may run through a third protein. Some results given as binding are weak or reduced against the parent protein; the word gives no strength. Tags and fused reporters may be left off the sequences shown.
Target: T1, TRPC6-YFP fusion protein (human transient receptor potential canonical type 6) (human) (UniProt Q9Y210)
T1 sequence (chain, O-GlcNAc at Ser13/14, Thr70 and Thr221 (constitutive, by mass spectrometry)): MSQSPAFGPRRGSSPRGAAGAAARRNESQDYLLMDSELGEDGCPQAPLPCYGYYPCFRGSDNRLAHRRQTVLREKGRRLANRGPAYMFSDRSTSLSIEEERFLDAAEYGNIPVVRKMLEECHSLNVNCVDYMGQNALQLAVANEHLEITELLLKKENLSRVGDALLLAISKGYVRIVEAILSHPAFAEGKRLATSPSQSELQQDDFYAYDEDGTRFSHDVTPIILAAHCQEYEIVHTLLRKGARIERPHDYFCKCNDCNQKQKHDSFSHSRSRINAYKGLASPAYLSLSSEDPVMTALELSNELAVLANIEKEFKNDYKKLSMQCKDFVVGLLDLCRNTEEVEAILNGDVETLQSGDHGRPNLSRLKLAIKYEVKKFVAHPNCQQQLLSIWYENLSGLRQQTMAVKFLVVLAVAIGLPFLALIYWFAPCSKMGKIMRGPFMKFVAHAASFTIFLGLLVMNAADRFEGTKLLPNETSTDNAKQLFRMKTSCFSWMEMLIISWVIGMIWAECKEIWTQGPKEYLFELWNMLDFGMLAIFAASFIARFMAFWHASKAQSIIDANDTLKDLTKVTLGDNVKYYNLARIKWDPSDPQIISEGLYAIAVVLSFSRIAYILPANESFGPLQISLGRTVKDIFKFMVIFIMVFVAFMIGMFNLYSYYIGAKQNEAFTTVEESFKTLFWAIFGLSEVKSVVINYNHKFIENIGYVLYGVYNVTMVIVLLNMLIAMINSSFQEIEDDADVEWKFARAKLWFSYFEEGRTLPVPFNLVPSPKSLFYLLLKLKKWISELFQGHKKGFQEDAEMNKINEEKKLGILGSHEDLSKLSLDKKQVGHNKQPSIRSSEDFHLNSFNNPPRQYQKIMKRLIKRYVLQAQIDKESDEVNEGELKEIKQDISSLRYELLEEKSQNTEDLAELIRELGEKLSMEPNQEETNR
Assay: co-IP; HEK-293T co-transfected with TRPC6-YFP and OGT-Flag; lysed in RIPA buffer; TRPC6-YFP captured on GFP M-trap beads, 4 h at 4°C; washed in 20 mM Tris/HCl pH 7.4, 150 mM NaCl, 1 mM EDTA, 0.05% Triton X100, 5% glycerol; precipitate probed with OGT antibody

binding: binds
B1: O-GlcNAc transferase (OGT), Flag-tagged (enzyme, UniProt O15294 1-1046)
chain: MASSVGNVADSTEPTKRMLSFQGLAELAHREYQAGDFEAAERHCMQLWRQEPDNTGVLLLLSSIHFQCRRLDRSAHFSTLAIKQNPLLAEAYSNLGNVYKERGQLQEAIEHYRHALRLKPDFIDGYINLAAALVAAGDMEGAVQAYVSALQYNPDLYCVRSDLGNLLKALGRLEEAKACYLKAIETQPNFAVAWSNLGCVFNAQGEIWLAIHHFEKAVTLDPNFLDAYINLGNVLKEARIFDRAVAAYLRALSLSPNHAVVHGNLACVYYEQGLIDLAIDTYRRAIELQPHFPDAYCNLANALKEKGSVAEAEDCYNTALRLCPTHADSLNNLANIKREQGNIEEAVRLYRKALEVFPEFAAAHSNLASVLQQQGKLQEALMHYKEAIRISPTFADAYSNMGNTLKEMQDVQGALQCYTRAIQINPAFADAHSNLASIHKDSGNIPEAIASYRTALKLKPDFPDAYCNLAHCLQIVCDWTDYDERMKKLVSIVADQLEKNRLPSVHPHHSMLYPLSHGFRKAIAERHGNLCLDKINVLHKPPYEHPKDLKLSDGRLRVGYVSSDFGNHPTSHLMQSIPGMHNPDKFEVFCYALSPDDGTNFRVKVMAEANHFIDLSQIPCNGKAADRIHQDGIHILVNMNGYTKGARNELFALRPAPIQAMWLGYPGTSGALFMDYIITDQETSPAEVAEQYSEKLAYMPHTFFIGDHANMFPHLKKKAVIDFKSNGHIYDNRIVLNGIDLKAFLDSLPDVKIVKMKCPDGGDNADSSNTALNMPVIPMNTIAEAVIEMINRGQIQITINGFSISNGLATTQINNKAATGEEVPRTIIVTTRSQYGLPEDAIVYCNFNQLYKIDPSTLQMWANILKRVPNSVLWLLRFPAVGEPNIQQYAQNMGLPQNRIIFSPVAPKEEHVRRGQLADVCLDTPLCNGHTTGMDVLWAGTPMVTMPGETLASRVAASQLTCLGCLELIAKNRQEYEDIAVKLGTDLEYLKKVRGKVWKQRISSPLFNTKQYTMELERLYLQMWEHYAAGNKPDHMIKPVEVTESA

From PMC10014292
